Reference: US20240376204A1
These are yes or no findings as the source states them, for the method shown. Some results given as binding are weak or reduced against the parent protein; the word gives no strength.

Amino acid sequences for entries named in this document (tags omitted). Residues count along the entry.
UniProt Q15116, residues 25-167: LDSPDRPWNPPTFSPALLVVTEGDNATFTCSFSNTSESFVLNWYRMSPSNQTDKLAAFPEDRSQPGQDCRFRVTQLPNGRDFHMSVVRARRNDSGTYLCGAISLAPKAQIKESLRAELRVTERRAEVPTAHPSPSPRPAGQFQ

Molecular target: Biotinylated human PD-1 protein (Avitag-His Tag) (human) (UniProt Q15116)
Experiment: yeast display, enrichment on biotinylated human PD-1 magnetic beads

- binding: binds
B1: A6 (VHH, variable region) (VHH)
VHH: EVQLVESGGGLVQAGGSLRLSCAVSGRTFSSAAMGWFRQAPGKEREFVAAISWSFGSTYYADSVKGRFTISRDNAKNTVYLQMNSLKPEDTAVYYCAADPSIETMGGGWDYWGQGTQVTVSS
